Results reported in the supplement of paper PMC10849652.
Some of the results follow.

By UniProt entry, the sequences of proteins in these tests, tags left out. Where a name states a change or a piece, a line headed by the entry shows the natural chain unless it says otherwise.
UniProt P09917: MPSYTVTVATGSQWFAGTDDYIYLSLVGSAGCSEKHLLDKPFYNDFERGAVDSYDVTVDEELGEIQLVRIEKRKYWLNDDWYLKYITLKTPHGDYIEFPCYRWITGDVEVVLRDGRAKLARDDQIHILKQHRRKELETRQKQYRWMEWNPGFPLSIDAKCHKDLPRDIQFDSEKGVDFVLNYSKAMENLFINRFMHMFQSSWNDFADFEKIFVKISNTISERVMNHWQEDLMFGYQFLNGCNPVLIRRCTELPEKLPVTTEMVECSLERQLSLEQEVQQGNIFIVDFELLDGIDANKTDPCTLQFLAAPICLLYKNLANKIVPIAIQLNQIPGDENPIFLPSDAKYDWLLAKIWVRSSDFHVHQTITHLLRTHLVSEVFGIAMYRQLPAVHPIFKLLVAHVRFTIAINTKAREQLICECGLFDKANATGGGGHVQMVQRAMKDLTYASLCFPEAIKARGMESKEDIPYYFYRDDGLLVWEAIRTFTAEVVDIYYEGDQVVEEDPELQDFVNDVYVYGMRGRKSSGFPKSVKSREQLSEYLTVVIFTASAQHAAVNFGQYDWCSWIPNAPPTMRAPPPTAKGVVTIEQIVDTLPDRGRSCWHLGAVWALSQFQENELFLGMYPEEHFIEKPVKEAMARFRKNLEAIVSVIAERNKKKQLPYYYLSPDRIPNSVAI
UniProt Q6NS38: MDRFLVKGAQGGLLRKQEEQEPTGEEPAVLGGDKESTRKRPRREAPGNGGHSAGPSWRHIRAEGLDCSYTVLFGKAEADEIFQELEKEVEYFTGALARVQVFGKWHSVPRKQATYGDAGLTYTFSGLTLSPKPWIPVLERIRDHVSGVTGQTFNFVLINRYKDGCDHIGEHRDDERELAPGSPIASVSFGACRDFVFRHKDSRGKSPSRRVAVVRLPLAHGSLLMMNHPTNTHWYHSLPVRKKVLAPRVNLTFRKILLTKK
UniProt Q02252: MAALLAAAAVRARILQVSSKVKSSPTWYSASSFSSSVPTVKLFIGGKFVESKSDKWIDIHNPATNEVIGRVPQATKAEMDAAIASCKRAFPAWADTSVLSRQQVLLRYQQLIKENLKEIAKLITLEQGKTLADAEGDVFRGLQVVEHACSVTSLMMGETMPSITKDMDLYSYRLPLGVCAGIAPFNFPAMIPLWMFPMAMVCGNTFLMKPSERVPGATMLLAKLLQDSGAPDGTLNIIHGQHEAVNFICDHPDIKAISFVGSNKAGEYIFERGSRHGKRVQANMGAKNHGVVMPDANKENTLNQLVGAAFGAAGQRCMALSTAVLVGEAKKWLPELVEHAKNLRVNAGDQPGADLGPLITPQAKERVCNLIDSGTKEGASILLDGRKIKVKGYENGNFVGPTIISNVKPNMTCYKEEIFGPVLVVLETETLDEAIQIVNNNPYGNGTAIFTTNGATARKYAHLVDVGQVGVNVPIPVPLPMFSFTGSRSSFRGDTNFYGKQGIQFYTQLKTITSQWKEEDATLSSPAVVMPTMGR
UniProt Q9UJX4, whole entry, looked up: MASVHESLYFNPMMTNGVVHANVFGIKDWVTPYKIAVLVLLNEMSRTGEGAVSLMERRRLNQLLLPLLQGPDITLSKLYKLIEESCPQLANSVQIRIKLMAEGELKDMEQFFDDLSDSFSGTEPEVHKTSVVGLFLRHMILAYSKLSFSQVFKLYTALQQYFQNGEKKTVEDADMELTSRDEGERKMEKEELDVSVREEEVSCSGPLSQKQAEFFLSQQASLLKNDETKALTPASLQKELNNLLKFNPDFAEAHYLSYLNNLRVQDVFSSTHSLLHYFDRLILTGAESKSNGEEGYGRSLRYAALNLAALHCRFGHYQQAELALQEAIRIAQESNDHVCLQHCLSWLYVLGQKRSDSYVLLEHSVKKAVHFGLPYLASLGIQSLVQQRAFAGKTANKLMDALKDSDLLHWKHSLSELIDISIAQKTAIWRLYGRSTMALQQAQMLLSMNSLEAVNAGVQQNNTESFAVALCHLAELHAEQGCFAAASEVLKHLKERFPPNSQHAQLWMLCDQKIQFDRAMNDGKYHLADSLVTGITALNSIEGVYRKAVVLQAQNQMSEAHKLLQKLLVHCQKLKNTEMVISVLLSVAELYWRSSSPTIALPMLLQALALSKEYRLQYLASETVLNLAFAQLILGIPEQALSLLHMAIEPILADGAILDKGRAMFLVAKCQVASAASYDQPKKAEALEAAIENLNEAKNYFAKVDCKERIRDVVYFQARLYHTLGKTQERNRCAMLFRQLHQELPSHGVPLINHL
UniProt Q9NW15: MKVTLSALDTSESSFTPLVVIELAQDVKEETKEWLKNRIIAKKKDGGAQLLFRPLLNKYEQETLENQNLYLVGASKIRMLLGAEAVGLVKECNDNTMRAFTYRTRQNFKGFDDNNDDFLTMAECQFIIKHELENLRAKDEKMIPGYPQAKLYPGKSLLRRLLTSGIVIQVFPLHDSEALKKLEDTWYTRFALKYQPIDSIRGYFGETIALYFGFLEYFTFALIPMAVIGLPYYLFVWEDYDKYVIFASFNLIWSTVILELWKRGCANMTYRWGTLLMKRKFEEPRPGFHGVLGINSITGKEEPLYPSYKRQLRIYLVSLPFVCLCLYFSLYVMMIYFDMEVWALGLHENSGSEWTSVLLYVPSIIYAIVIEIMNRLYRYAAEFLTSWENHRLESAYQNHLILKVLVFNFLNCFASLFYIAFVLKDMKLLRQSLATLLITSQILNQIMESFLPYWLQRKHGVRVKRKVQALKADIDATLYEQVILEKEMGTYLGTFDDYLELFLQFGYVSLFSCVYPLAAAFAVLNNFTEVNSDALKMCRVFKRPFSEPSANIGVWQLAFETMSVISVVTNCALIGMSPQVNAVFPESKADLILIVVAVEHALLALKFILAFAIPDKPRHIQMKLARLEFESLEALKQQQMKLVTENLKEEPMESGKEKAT
UniProt Q86W74: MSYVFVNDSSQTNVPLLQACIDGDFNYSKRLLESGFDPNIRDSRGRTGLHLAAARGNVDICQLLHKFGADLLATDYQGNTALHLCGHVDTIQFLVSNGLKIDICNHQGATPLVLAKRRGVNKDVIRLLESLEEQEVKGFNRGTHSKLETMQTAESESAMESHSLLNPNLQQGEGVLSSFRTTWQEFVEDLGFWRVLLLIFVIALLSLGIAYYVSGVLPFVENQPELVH
UniProt P15144: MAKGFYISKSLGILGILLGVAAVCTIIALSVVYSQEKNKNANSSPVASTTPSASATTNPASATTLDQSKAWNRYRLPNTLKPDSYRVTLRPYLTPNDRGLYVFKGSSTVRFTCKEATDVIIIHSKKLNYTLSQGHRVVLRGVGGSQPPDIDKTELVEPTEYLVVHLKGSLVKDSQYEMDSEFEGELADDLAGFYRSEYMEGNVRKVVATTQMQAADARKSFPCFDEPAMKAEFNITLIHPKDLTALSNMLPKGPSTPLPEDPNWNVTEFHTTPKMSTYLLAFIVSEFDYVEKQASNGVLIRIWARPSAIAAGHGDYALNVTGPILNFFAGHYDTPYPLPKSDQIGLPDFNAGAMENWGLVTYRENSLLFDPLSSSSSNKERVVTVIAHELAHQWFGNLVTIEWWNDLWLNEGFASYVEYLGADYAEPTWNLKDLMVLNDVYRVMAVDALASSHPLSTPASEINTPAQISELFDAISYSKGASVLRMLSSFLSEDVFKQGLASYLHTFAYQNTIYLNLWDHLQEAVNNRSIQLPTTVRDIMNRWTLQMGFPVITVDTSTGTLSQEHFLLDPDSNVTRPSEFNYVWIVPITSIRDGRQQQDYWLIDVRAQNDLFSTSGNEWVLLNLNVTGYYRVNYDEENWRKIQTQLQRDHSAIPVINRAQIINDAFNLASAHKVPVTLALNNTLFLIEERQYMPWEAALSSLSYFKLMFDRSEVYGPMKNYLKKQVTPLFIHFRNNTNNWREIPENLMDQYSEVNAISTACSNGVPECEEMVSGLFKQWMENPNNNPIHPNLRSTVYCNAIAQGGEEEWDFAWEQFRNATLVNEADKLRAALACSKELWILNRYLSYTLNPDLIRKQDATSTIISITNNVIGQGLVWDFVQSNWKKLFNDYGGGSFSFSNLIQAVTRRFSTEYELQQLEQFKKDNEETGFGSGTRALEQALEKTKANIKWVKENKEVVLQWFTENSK
UniProt P08758: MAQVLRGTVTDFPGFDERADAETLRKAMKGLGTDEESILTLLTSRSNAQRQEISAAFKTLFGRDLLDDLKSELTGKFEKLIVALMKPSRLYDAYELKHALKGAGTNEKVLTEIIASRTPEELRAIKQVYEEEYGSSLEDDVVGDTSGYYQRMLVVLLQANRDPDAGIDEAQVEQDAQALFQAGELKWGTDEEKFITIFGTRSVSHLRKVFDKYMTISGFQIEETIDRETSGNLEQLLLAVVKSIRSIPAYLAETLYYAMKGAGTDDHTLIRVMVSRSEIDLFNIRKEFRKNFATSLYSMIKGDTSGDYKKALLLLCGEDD
UniProt Q9UM13, whole entry, looked up: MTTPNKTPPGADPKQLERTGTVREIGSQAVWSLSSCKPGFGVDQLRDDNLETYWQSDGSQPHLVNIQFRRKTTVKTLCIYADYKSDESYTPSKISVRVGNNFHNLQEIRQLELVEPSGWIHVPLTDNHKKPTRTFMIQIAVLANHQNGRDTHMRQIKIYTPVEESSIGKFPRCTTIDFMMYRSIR
UniProt O94788: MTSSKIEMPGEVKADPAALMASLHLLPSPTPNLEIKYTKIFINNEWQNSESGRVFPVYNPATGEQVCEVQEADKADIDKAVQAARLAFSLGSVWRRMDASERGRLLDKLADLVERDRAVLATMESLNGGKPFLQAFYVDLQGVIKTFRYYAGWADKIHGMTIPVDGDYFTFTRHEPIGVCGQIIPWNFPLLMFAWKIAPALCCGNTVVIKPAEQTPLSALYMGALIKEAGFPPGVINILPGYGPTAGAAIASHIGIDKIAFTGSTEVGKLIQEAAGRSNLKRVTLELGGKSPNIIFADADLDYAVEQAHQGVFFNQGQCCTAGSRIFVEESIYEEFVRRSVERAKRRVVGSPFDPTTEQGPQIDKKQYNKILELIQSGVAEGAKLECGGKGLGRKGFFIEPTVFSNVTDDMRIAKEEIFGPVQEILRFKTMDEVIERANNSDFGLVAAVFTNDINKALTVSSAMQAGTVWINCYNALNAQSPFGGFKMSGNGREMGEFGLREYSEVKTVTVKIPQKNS
UniProt Q9UJX3, whole entry, looked up: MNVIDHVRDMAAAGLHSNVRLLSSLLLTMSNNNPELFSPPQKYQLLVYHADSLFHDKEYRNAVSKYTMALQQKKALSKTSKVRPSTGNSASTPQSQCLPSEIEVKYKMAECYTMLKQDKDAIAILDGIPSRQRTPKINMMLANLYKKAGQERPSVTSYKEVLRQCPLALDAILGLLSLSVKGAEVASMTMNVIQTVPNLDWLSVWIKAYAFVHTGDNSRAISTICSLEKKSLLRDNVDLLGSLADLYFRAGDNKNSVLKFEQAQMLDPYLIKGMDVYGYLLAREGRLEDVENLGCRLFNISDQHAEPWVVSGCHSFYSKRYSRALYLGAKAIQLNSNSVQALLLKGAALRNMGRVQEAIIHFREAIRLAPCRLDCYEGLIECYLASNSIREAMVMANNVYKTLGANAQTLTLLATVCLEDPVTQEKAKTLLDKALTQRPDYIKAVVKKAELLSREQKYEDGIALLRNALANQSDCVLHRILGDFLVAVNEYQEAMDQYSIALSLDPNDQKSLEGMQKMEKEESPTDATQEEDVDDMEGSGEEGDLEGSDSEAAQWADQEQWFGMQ
UniProt O43747: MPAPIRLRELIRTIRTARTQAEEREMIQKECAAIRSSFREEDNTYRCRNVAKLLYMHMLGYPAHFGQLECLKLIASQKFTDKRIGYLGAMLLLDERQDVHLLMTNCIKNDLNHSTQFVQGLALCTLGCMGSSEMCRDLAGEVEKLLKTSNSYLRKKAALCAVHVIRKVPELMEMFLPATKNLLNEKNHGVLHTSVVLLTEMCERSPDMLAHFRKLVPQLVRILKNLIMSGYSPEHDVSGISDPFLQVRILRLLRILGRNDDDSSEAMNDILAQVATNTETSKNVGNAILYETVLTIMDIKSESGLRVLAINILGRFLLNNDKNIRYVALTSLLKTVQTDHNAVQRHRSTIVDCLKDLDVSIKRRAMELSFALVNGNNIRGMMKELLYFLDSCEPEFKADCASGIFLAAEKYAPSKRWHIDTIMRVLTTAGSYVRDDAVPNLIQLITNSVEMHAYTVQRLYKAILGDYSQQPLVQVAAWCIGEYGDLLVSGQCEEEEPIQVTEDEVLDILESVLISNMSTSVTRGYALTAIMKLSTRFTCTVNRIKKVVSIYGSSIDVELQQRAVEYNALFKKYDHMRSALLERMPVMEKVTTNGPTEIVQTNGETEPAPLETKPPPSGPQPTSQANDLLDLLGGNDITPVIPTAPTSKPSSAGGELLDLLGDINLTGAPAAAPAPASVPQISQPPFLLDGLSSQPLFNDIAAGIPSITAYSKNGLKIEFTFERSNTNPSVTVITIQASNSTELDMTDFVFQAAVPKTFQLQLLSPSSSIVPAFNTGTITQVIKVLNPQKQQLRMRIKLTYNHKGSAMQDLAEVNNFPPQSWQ

compound: CN1CC[C@H](c2c(O)cc(O)c3c(=O)cc(-c4ccccc4Cl)oc23)[C@H](O)C1 [alvocidib]; assay: log2 fold change, soluble protein after heating vs DMSO (PISA); higher = thermal stabilisation; K562 lysate, 10 uM; active = over 0.2 and 3.5 SD of the protein, either way, in both replicates (recomputed)
Method in brief: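 K562 pellets were dounce-homogenised in PBS pH 7.4 containing 1 mM MgCl2, and the crude extract, at 1 mg/mL protein, was exposed to 10 μM compound for 30 min. Aliquots were heated for 3 min across 48°C-58°C, pooled, brought to 0.5% NP-40 at 4°C and spun at 21,000xg for 90 min, with the supernatant taken as soluble protein. TMTpro 16plex LC-MS/MS with equalised channel sums quantified that protein. Values are log-two fold changes in thermal stability relative to solvent controls, taken from duplicates.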

log2 fold change, inactive:
ALDH1A1 (UniProt P00352) 0.06, ALDOA (UniProt P04075) 0.011, ALG2 (UniProt Q9H553) 0.07, ANP32B (UniProt Q92688) 0.002, ANKRD30B (UniProt Q9BXX2) -0.307, ALOX5 (UniProt P09917) -0.185, ANKRD11 (UniProt Q6UB99) -0.25, ANKRD52 (UniProt Q8NB46) -0.002, AP3B2 isoform 4 (UniProt Q13367) -0.008, ALG13 (UniProt Q9NP73) -0.039, ANKFY1 isoform 4 (UniProt Q9P2R3) -0.009, AP4E1 (UniProt Q9UPM8) -0.029, ANKHD1 isoform 6 (UniProt Q8IWZ3) -0.109, ALDH4A1 (UniProt P30038) 0.017, ALDH9A1 isoform 3 (UniProt P49189) 0.014, ALKBH2 (UniProt Q6NS38) 0.061, ALDH6A1 (UniProt Q02252) -0.044, ANAPC5 (UniProt Q9UJX4) 0.018, AKT1 (UniProt P31749) -0.002, ANO10 (UniProt Q9NW15) 0.013, AP1S1 (UniProt P61966) 0.025, ALDH1B1 (UniProt P30837) 0.168, ALDH1L2 (UniProt Q3SY69) -0.04, ANKRD46 (UniProt Q86W74) 0.094, ANPEP (UniProt P15144) 0.002, ANXA5 (UniProt P08758) 0.04, ANAPC10 (UniProt Q9UM13) -0.006, ALDH1A2 (UniProt O94788) 0.027, AKT1S1 isoform 3 (UniProt Q96B36) -0.008, ANAPC7 (UniProt Q9UJX3) 0.011, AP1G1 isoform 2 (UniProt O43747) -0.058, AMMECR1L (UniProt Q6DCA0) 0.05, ALG8 (UniProt Q9BVK2) 0.004, ANXA2 isoform 2 (UniProt P07355) 0.012
